Measured values published in PubChem BioAssay AID651550 (National Center for Advancing Translational Sciences (NCATS), 2012).
Hit rate of the full screen: of about 360,000 compounds, about 1,100 (0.31%) were called active. This list was built around the results that the source calls inconclusive (neither active nor inactive); the mix of calls is not that of the screen. Rule as the data show it: active = activity change below about -80%; inconclusive = mostly about -51% to -80%; inactive = weaker than that.

Each compound was assayed against RAC-alpha serine/threonine-protein kinase (Homo sapiens) (UniProt P31749) (assay: HTS Assay for Inhibitors of Akt Phophorylation: Primary Screen). Settings: Neuro2A IGF-stimulated pAkt S473 HTRF, 20 min; at 50 µM, stronger effect = lower value.
Summary of the method: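 Single-point screen (50 µM final compound) in Neuro2A cells stimulated 20 min with 6 nM IGF at 37 deg C. After lysis, Ser473-phosphorylated Akt read by HTRF (ex 330 nm, em 615/665 nm) as the 665/615 ratio.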
% is scaled to controls: 0 for no effect and ±100 for the full control effect.

SMILES	activity change
Clc1ccc2[nH]c3c(NCCN4CCOCC4)ncnc3c2c1	inactive
COc1ccc(-c2nnc(-c3ccccc3)o2)cc1OC	inactive
O=C(CCc1ccccc1)NNC(=O)c1ccco1	inconclusive: -62.7%
CCC1CCCCN1C(=S)NC(=O)c1cc(Br)ccc1Cl (stereo not given)	inactive
COc1ccc(-c2nnc(SCc3ccccn3)n2C)cc1	active: -107%
N#Cc1c(N)nc(N2CCCC2)c(C#N)c1-c1ccc(Cl)cc1	inconclusive: -72.3%
O=C(COC(=O)c1cc(-c2ccc(Cl)s2)nc2ccccc12)NCc1ccco1	inactive: -12.6%
COc1ccc(-c2nnc(-c3ccc(OCC(C)C)cc3)o2)cc1	inactive
CC[C@]12c3[nH]c4cc(CCC(=O)N(C)C)ccc4c3CCN1C(=O)[C@@H](CC(=O)NCc1ccc(OC)c(OC)c1)C[C@@H]2C(=O)N1CCN(C(=O)c2ccco2)CC1	inactive
CCOc1nc(C)ccc1-c1noc(C)n1	active: -110%
COc1ccc(-n2nc(C(=O)NCC(=O)Nc3ccccn3)c3ccccc3c2=O)cc1	inconclusive: -62.9%
CCCCN(Cc1cc2cc(OC)ccc2[nH]c1=O)C(=O)c1ccco1	active: -92.7%
CC1CN(C(=O)c2cc(F)c(F)cc2Cl)CC(C)O1 (stereo not given)	inconclusive: -50.8%
Cc1cccc(-n2c(SCCC(=O)O)nnc2-c2cccs2)c1C	active: -115%
O=c1oc(-c2ccccc2)nc2c1cnn2-c1ccccc1	inconclusive: -75.9%
CN1C/C(=C/c2cccnc2)C(=O)/C(=C/c2cccnc2)C1	inactive
O=C1CSC2(C(=O)N3CCCc4cccc2c43)N1c1cccc(C(F)(F)F)c1 (stereo not given)	inconclusive: -51.6%
O=C(c1ccc(Br)cc1)c1cc(-c2ccccn2)c(N2CCOCC2)s1	inconclusive: -72.8%
COc1ccc(CNC(=O)c2c(O)c3ccccc3n(C)c2=O)cc1OC	inconclusive: -72.4%
O=[N+]([O-])c1cccc(-c2ccc(CN3CCN(c4ccccc4)CC3)o2)c1	inactive
O=C1c2cnc3nc(SCc4ccc(Cl)cc4)nn3c2CC2c3ccccc3CCN12 (stereo not given)	inconclusive: -69.6%
COC(=O)C1C(O)=C(C=NCc2ccccc2)C(=O)CC1(C)C (stereo not given)	active: -114%
CSc1ccc(/C=N/NC(=O)C[n+]2ccccc2)cc1	inactive
N#Cc1c(NC(=O)CSc2nc3ccccc3c(=O)n2Cc2ccco2)sc2c1CCCC2	active: -91.1%
Cn1c(=O)c2[nH]c(CCc3ccncc3)nc2n(C)c1=O	inactive

Ordered by length of the SMILES (descending): 16 of the compounds above.
SMILES	activity change
CC[C@]12c3[nH]c4cc(CCC(=O)N(C)C)ccc4c3CCN1C(=O)[C@@H](CC(=O)NCc1ccc(OC)c(OC)c1)C[C@@H]2C(=O)N1CCN(C(=O)c2ccco2)CC1	inactive
N#Cc1c(NC(=O)CSc2nc3ccccc3c(=O)n2Cc2ccco2)sc2c1CCCC2	active: -91.1%
O=[N+]([O-])c1cccc(-c2ccc(CN3CCN(c4ccccc4)CC3)o2)c1	inactive
O=C1CSC2(C(=O)N3CCCc4cccc2c43)N1c1cccc(C(F)(F)F)c1 (stereo not given)	inconclusive: -51.6%
O=C(COC(=O)c1cc(-c2ccc(Cl)s2)nc2ccccc12)NCc1ccco1	inactive: -12.6%
O=C(c1ccc(Br)cc1)c1cc(-c2ccccn2)c(N2CCOCC2)s1	inconclusive: -72.8%
CCCCN(Cc1cc2cc(OC)ccc2[nH]c1=O)C(=O)c1ccco1	active: -92.7%
N#Cc1c(N)nc(N2CCCC2)c(C#N)c1-c1ccc(Cl)cc1	inconclusive: -72.3%
COc1ccc(-c2nnc(-c3ccc(OCC(C)C)cc3)o2)cc1	inactive
Cc1cccc(-n2c(SCCC(=O)O)nnc2-c2cccs2)c1C	active: -115%
Cn1c(=O)c2[nH]c(CCc3ccncc3)nc2n(C)c1=O	inactive
Clc1ccc2[nH]c3c(NCCN4CCOCC4)ncnc3c2c1	inactive
CCC1CCCCN1C(=S)NC(=O)c1cc(Br)ccc1Cl (stereo not given)	inactive
COc1ccc(-c2nnc(-c3ccccc3)o2)cc1OC	inactive
O=C(CCc1ccccc1)NNC(=O)c1ccco1	inconclusive: -62.7%
CCOc1nc(C)ccc1-c1noc(C)n1	active: -110%

Later entries.

SMILES	activity change
O=C(O)c1cc2nc3c(c(C(F)(F)F)n2n1)CCc1ccccc1-3	active: -114%
COc1cc(Br)cc(CN2CCN(C/C=C/c3ccccc3)CC2)c1O	inconclusive: -51.1%
COc1ccc2nc(SCC(=O)Nc3ccc4sc(C)nc4c3)c(C#N)cc2c1	inconclusive: -69.6%
COc1ccc(-c2nnc(SCC(N)=O)n2N)cc1	inconclusive: -54.4%
FC(F)(F)c1cc(-c2ccccc2)nc(-n2cncn2)n1	inconclusive: -63.2%
Cc1c(C#N)c2ncnc(N)c2n1-c1ccccc1	active: -104%
Cc1ccc(-c2cc(C(=O)NCc3ccco3)c3ccccc3n2)s1	inactive: -4.71%
COc1ccc(CCN2CC(C(=O)O)CC2=O)cc1 (stereo not given)	inconclusive: -64.9%
COc1cc(C(=O)Nc2cccc(-c3nc4cc(C)ccc4o3)c2C)cc(OC)c1OC	active: -105%
O=C(C1=C(O)C(=O)N(Cc2ccco2)C1c1cccnc1)c1cc2ccccc2o1 (stereo not given)	active: -82.1%
C=CCOCCN1C(=O)C2C(c3ccccc3)C=CC(c3ccccc3)C2C1=O (stereo not given)	inactive
CCn1c(=O)n(CC)c2cc(S(=O)(=O)N3CCCCC3)c(C)cc21	inactive: -17%
Clc1ccccc1OCCCCn1ccnc1	inconclusive: -53.1%
CCCNC(=O)c1ccc(COc2ccc(C)cc2)o1	inactive
O=C(c1ccc2c(c1)C(=O)N(c1ccc(Cl)cc1)C2=O)N1CCN(c2ccccn2)CC1	active: -121%
O=C(NC(=S)NCc1ccc2c(c1)OCO2)c1ccccc1	inactive
O=C(Nc1nccs1)c1cc(-c2ccccc2)nc2ccccc12	inactive
OCC1OC(n2nnc3ccccc32)C(O)C(O)C1O (stereo not given)	active: -92.2%
O=C(c1cccc(Cl)c1)N1CCN(Cc2ccc3c(c2)OCO3)CC1	inactive
COc1cc(C(=O)Nc2cccc(-c3nc4ncccc4o3)c2C)cc(OC)c1OC	inconclusive: -59.9%
COc1ccc(-n2c(C)n[nH]c2=O)cc1	inconclusive: -55.1%
CCCc1nc2ccc(NC(=O)NCCC(=O)OCC)cc2c(=O)n1Cc1cccc(Cl)c1	inactive: -0.557%
Cc1cc(NC(=O)CSc2ncn(-c3ccccc3)n2)no1	active: -112%
COC(=O)Cn1cnc2c(C#N)c3n(c2c1=O)CCCC3	inconclusive: -67.4%
S=C(NCCc1ccccc1)N/N=C/c1c(Cl)cccc1Cl	inactive

SMILES	activity change
COc1ccc(-c2ccc(-c3noc(-c4ccccc4)n3)c(OC)n2)cc1	inconclusive: -65.1%
CCOC(=O)c1c(-c2ccco2)csc1N	active: -124%
COc1ccc(NC(=O)NC2CCN(C(C)C)CC2)c(OC)c1	inconclusive: -68.5%
COc1ccc(NS(=O)(=O)c2ccc3oc(SC(C)C(N)=O)nc3c2)cc1 (stereo not given)	inactive
CCOC(=O)C1=C(NC(=S)NC(=O)c2ccccc2)c2ccccc2CC1(C)C	inconclusive: -51.5%
O=c1cc(NC2CCCCCC2)[nH]c(=O)[nH]1	active: -112%
CCOC(=O)C(C#N)c1ccccn1 (stereo not given)	inconclusive: -79.4%
Cc1cc(C(=O)Nc2nc3ccc(S(C)(=O)=O)cc3s2)c(C)o1	inconclusive: -53.1%
Cc1ccccc1OCC(=O)Nc1sc(C(=O)Nc2cccc(C)c2C)c(C)c1C#N	inconclusive: -75.2%
O=C(NCc1ccc(F)cc1)c1c(O)c2cccc3c2n(c1=O)CCC3	inconclusive: -59.5%
Cc1cccc(CCNc2nc3ccccc3n3nnnc23)c1	active: -87.4%
Nc1c(C(=O)Nc2ccccc2F)sc2nc(Cc3ccccc3)cc(C(F)(F)F)c12	active: -109%
CC(C)CNC(=O)c1ccccc1NC(=O)Nc1ccccc1	active: -105%
Cc1cc(C)cc(NC(=O)C2CCN(c3nc(C)cc(C)n3)CC2)c1	inconclusive: -60.7%
COCCCNC(=O)CS(=O)(=O)Cc1nc(-c2cccc(OC)c2)oc1C	inconclusive: -58.4%
CC(c1ccccc1)C1CC(=O)N(c2ccc(C(=O)O)cc2)C1=O (stereo not given)	active: -81.2%
Cc1cc2nc3c(nc2cc1C)C1(C(=O)N(C)C)CCC3(C)C1(C)C (stereo not given)	active: -110%
CC1(C(=O)Nc2ccc3[nH]ncc3c2)CCN1C(=O)CC(c1ccccc1)c1ccccc1 (stereo not given)	inactive
Cc1cccc(C)c1NC(=O)C(=O)c1cn(C)c2ccccc12	inactive
COc1ccc(C2=Nn3c(nnc3-c3ccco3)SC2)cc1OC	inconclusive: -54%
NC(=O)C1CCN(C(=O)C2c3ccccc3C(=O)N3CCc4ccccc4C23)CC1 (stereo not given)	inconclusive: -62.6%
O=C(CN1CCN(S(=O)(=O)c2ccccc2)CC1)Nc1ccc2c(c1)CCC2	inactive
Cn1c(C(=O)NCc2cccnc2)cc2sccc21	active: -83.2%
Cc1nonc1NC(=O)CSc1nc2cc(Cl)ccc2c2c1CCCC2	active: -94.4%
CCCNc1nc(N)nc(-c2cc(Cl)ccc2OC)n1	active: -102%
